Source: PubChem BioAssay AID977622 (Broad Institute, 2014)
The list shows a part of the results. Shown are side measurements of this screen, not its main read-out; they come without a call.

Experiments:
[1] = wild-type E. coli growth inhibition versus h38 humanized strain – h38 mutant RFP, wild-type GFP, cherry-pick, dose response (AID 977622); details: E. coli mixed culture, 24 h, total growth OD600 at 50 uM
[2] = tested on: E. coli h38 humanized mutant ribosome RFP fluorescence, mixed culture, 24 h; assay: as above; details: h38 mutant RFP at 50 uM

SMILES | activity change [1] | activity change [2]
Cc1nnc2sc(SCC(=O)Nc3ccc(Br)cc3)nn2c1=O | -28.3% | -9.41%
CN(C)c1ccc(-c2nnn(Cc3ccccc3Br)n2)cc1 | -46% | 1.11%
C=CCn1c(C)cc(C(=O)COC(=O)CNC(=O)c2ccccc2)c1C | -52.8% | 7.47%
O=C1CN(C(=O)c2ccc(Cl)c(S(=O)(=O)N3CCc4ccccc43)c2)c2ccccc2N1 | -39.9% | -11.1%
COc1ccc(OC)c(C(=O)COC(=O)c2ccc([N+](=O)[O-])o2)c1 | -23.6% | -3.47%
Cc1cccc(C)c1NC(=O)CNC(=O)C(C)N1CCN(c2cccc(Cl)c2)CC1 (configuration not stated) | -27% | 
Cc1cccc(NC(=O)CN(C)S(=O)(=O)c2cccs2)c1 | -4.33% | -12.4%
COc1ccc(C#Cc2ccc3c(c2)[C@@H]2[C@@H](CCN2Cc2nccs2)[C@@H](CO)N3)cc1 | -31.9% | 23.3%
O=C(NCc1cccnc1)C1CCN(S(=O)(=O)c2cc([N+](=O)[O-])ccc2Cl)CC1 | -8.66% | 9.4%
O=C(c1ccco1)c1nnn(Cc2ccccc2)c1-c1ccccc1 | -49.4% | 
NS(=O)(=O)c1cccc(NC(=O)COc2ncnc3c2cnn3-c2ccccc2)c1 | -10.8% | -13.1%
COc1cccc(S(=O)(=O)N2CCCCN3[C@H](CO)[C@H](c4ccc(C#CC(C)C)cc4)[C@H]3C2)c1 | -95.8% | -64.4%
COc1ccc(OCC(=O)N2c3ccccc3CC2C)c([N+](=O)[O-])c1 (configuration not stated) | -22.7% | -18%
NS(=O)(=O)c1cccc(NC(=O)c2cccc(-c3ccc(O)cc3)c2)c1 | -48.9% | 
C[C@@H]1CCCCO[C@@H](CN(C)C)[C@H](C)CN([C@@H](C)CO)C(=O)c2cc(NC(=O)Nc3cccc4ccccc34)ccc2O1 | -11% | -3.92%
Cc1ccc(NCCCn2cnc3c(OCc4ccccc4)ncnc32)cc1C | -20.5% | -2.44%
Cc1ccc(C(=O)Nc2ccc3ncccc3c2)cc1 | -14.2% | -7.12%
O=C(NCCc1csc(-c2ccccc2)n1)c1ccccc1F | -41.4% | -24.2%
Cc1c(C(=O)O)oc2ccc(S(=O)(=O)NC3CCCCCCC3)cc12 | -39% | 
c1ccc(-c2nc(-c3cccnc3)cs2)cc1 | -16.4% | -7.12%
Cc1ncoc1C(=O)NCCC(c1ccccc1)c1ccccc1 | -26.9% | -32.4%
COC(=O)c1c(NC(=O)CCC(=O)O)sc(Cc2ccccc2)c1C | -67.8% | 
CC(C)(C)c1ccc2c(c1)C(c1ccc3c(c1)OCO3)CC(=O)O2 (configuration not stated) |  | -23.1%

SMILES | activity change [1] | activity change [2]
Cc1nc(C)c(-c2ccn(S(=O)(=O)c3ccc(Cl)cc3)n2)o1 | -47.4% | 
O=C1C(c2ccccc2)c2ccccc2N1Cc1ccccc1 (configuration not stated) | -40.4% | -17.3%
CN(Cc1ccc(Cl)s1)C(=O)CNC(=O)CNC(=O)c1ccc(Cl)cc1Cl | -39.4% | 9.3%
O=C(C[C@H]1CC[C@H](NC(=O)Nc2ccccc2F)[C@H](CO)O1)NCc1ccc(-c2ccccc2)cc1 | -15.9% | -3.88%
COc1ccc(OC)c(Nc2nc(N)c([N+](=O)[O-])c(N3CCOCC3)n2)c1 | -17.8% | -9.94%
CC1(C(=O)NS(=O)(=O)c2cccs2)CCN1C(=O)C1(c2ccc(Cl)cc2)CCC1 (configuration not stated) | -5.17% | -13.6%
CS(=O)(=O)NCCSc1cc(C(F)(F)F)nc2ccccc12 | -46.4% | 14.1%
O=C(Nc1ccccc1Cl)N1C[C@H]2[C@@H](c3ccccc31)[C@@H](CO)N2Cc1ccccc1 | -90.5% | 10.5%
CNC[C@H]1OCCCC[C@@H](C)Oc2ccc(NC(=O)Nc3cccc4ccccc34)cc2C(=O)N([C@@H](C)CO)C[C@H]1C | 7.83% | 22.3%
COc1ccc(-n2cc(-c3ccccc3)c3c(N4CCOCC4)ncnc32)cc1 | -69.8% | -6.11%
CC(=O)Nc1cccc2c1Cc1cc([N+](=O)[O-])ccc1-2 | -24.6% | -13.8%
CCN(c1ccccc1)S(=O)(=O)c1ccc(Cl)c(C(=O)NCc2ccco2)c1 | -66.4% | 
O=C1N2c3ccccc3CCc3cccc(c32)C1(O)C(F)(F)F (configuration not stated) | -64.6% | -23.9%
CCOC(=O)c1sc(Nc2cccc(Cl)c2)nc1C | -22.9% | -32.1%
O=C(NC1CCCCC1)C(c1cccc2ccccc12)n1c(=O)c(-c2ccco2)nc2ccccc21 (configuration not stated) | -3.58% | 15%
C=CCn1c(-c2cc3cccc(OC)c3o2)n[nH]c1=S | -25.3% | 
O=C(CC(=O)c1cccs1)c1ccncc1 | -24.7% | -17.7%
COc1cc(C(N)=O)cc(Br)c1OCc1ccccc1 | -54.4% | 3.25%
CCC(=O)N(CCC(c1ccco1)C(C)C)Cc1ccccc1 (configuration not stated) | -45.3% | 22.8%
Cc1cc(NC(=O)CN2CCN(c3cccc(Cl)c3)CC2)no1 | -10.9% | 
Cc1noc(C)c1NC(=O)N(C)C[C@H]1OCCCC[C@@H](C)Oc2ccc(NC(=O)Nc3cccc4ccccc34)cc2C(=O)N([C@@H](C)CO)C[C@H]1C | -12.2% | -8.28%
O=C(CCS(=O)(=O)c1ccccc1)Nc1ncc([N+](=O)[O-])s1 | -45.2% | -55.8%
CN(C)C(=O)c1cccc(-c2ccc(C3[C@H]4CNC[C@@H]3N4S(=O)(=O)c3ccccc3F)cc2)c1 (some centres not stated) | 1.46% | 21%

SMILES | activity change [1] | activity change [2]
CC(CCC(=O)O)C1CC[C@@]2(C)C3C(=O)CC4C(C)(C)C(O)CC[C@]4(C)C3C(=O)C[C@]12C (some centres not stated) | -22.8% | 
COc1ccc(OC)c(NC(=O)COC(=O)c2c3c(nc4ccccc24)CCCC3)c1 | -58.8% | -28.6%
O=C(O)CNC(=O)C(c1ccccc1)c1ccccc1 | 0.857% | 40.6%
COc1ccc(-c2csc(NC(=O)CC(NC(C)=O)c3ccccc3)n2)cc1OC (configuration not stated) | -51.6% | -16.1%
Cc1cccc(CSCC(=O)N2CCN(S(=O)(=O)c3ccccc3C#N)CC2)c1 | -38.9% | 0.057%
COc1ccc(NC(=O)c2cccs2)cc1C(=O)N1CCN(c2ccccc2)CC1 | -31.1% | -25.7%
Oc1ccccc1Oc1ncc(Br)c(Cl)n1 | -67.5% | -9.48%
CC(=O)Nc1ccc(S(=O)(=O)Nc2cccc(-c3nc4cc(C)ccc4o3)c2)cc1 | -49.4% | -19.9%
CSc1ccccc1NC(=O)CN(c1cccc(C)c1)S(C)(=O)=O | -10.3% | 14.7%
Cc1cc(C)c(OCCNC(=O)c2ccccc2Sc2ccccc2C#N)c(C)c1 | -37.4% | 40.4%
COc1cc2c(cc1OC)CN(CC(=O)Nc1ccccc1SC)CC2 | -19.2% | -12.3%
O=C(c1ccccc1)N1CCN(c2ccc([N+](=O)[O-])c(NCC3CCCO3)c2)CC1 (configuration not stated) | -4.86% | 0.149%
CSc1ccc(CN(C)CC(=O)NC(C)c2ccccc2)cc1 (configuration not stated) | -15.5% | 43.8%
CC1(C(=O)NCCc2c[nH]c3ccccc23)CCN1CC1CCCCC1 (configuration not stated) | -87.4% | 57.3%
CCN(C(=O)COC(=O)c1ccc([N+](=O)[O-])o1)c1cccc2ccccc12 | -11.8% | -24%
O=C1CCCCC1Nc1ccc(Br)cc1 (configuration not stated) | -34.8% | -30%
Cn1cc([N+](=O)[O-])c(C(=O)Nc2ccc(-c3nc4ccccc4[nH]3)cc2)n1 | -38.9% | -7.05%
Nc1nn(-c2ccccc2)c2ccc([N+](=O)[O-])cc12 | 5.35% | 2.17%
Nc1nc(=S)ss1 | -18.6% | -32.2%
COC(=O)c1c(-c2ccc(OC)cc2)sc2cc(OC)c(OC)cc12 | -46.1% | -40.7%
O=c1[nH]c(C2CCCN(S(=O)(=O)c3ccccc3Cl)C2)nc2c1nnn2Cc1ccc2c(c1)OCCO2 (configuration not stated) | -24.2% | -4.63%
Brc1ccccc1Cn1c(-c2cncs2)nc2ccccc21 | -8.66% | -8.85%
Cc1c(Cc2ccc3c(c2)OCO3)sc(NC(=O)C2CC2)c1C(N)=O | -61.7% | -17.8%

Look-ups from above:
activity change [2] with COc1ccc(-c2csc(NC(=O)CC(NC(C)=O)c3ccccc3)n2)cc1OC (configuration not stated) reads -16.1%
activity change [2] with Cc1cccc(CSCC(=O)N2CCN(S(=O)(=O)c3ccccc3C#N)CC2)c1 reads 0.057%
activity change [1] with Cn1cc([N+](=O)[O-])c(C(=O)Nc2ccc(-c3nc4ccccc4[nH]3)cc2)n1 reads -38.9%
activity change [2] with COC(=O)c1c(-c2ccc(OC)cc2)sc2cc(OC)c(OC)cc12 reads -40.7%
activity change [1] with Nc1nn(-c2ccccc2)c2ccc([N+](=O)[O-])cc12 reads 5.35%
activity change [2] with CSc1ccc(CN(C)CC(=O)NC(C)c2ccccc2)cc1 (configuration not stated) reads 43.8%

Later entries

SMILES | activity change [1] | activity change [2]
CN1C(=O)c2cc(NC(=O)c3cccc(F)c3)ccc2OC[C@H]2O[C@@H](CC(=O)N3CCc4ccccc4C3)CC[C@@H]21 | -32% | -21.5%
CN1CCN(c2nc(-c3cccnc3)nc3scc(-c4ccccc4)c23)CC1 | -88.6% | 
O=C(Nc1ccc2c(c1)OCCO2)C1C(c2ccccc2)=Nc2ccccc2N1C(=O)c1cccnc1 (configuration not stated) | -10.1% | 0.574%
COc1cccc(S(=O)(=O)N2CCCCN3[C@H](C2)[C@@H](c2ccc(C#CC(C)C)cc2)[C@@H]3CO)c1 | -6.89% | -3.86%
Cc1cccc(-n2cnc3cc([N+](=O)[O-])ccc32)c1 | -4.88% | -5.01%
CC1CCCN(c2nc(N(C)c3ccccc3)nc(N)c2[N+](=O)[O-])C1 (configuration not stated) | -39.8% | -37.3%
COc1ccc(NC(=O)Nc2cccc3c2O[C@@H](CN(C)S(=O)(=O)c2ccc(Cl)cc2)[C@H](C)CN([C@@H](C)CO)C3=O)cc1 | -22.9% | -4.28%
COc1cccc(S(=O)(=O)N2CCCCN3[C@@H](CO)[C@@H](c4ccc(C#CC(C)C)cc4)[C@@H]3C2)c1 | -95.6% | -59.9%
O=C(COC(=O)c1cccc(S(=O)(=O)N2CCCCC2)c1)NCc1cccc(Cl)c1 | -30.5% | -20.9%
CCC(=O)N1[C@H](CO)[C@@H]2c3ccccc3N(C(=O)Nc3ccc(Cl)cc3)C[C@@H]21 | -7.33% | 1.62%
Nc1ccccc1C#CC(=O)c1ccccc1 | -45% | -39.9%
CN(C)S(=O)(=O)c1cccc(C(=O)Nc2ccc(C(=O)Nc3cccc(S(N)(=O)=O)c3)cc2)c1 | -8.9% | -19%
Cc1cc(C(=O)Nc2ccc3ccccc3c2)c(C)o1 | -27.7% | 
O=C(CN(c1ccc(F)cc1)S(=O)(=O)c1ccccc1)Nc1ccccc1C(=O)O | -7.23% | 66.9%
CCN1CCN(c2c(Cl)cccc2NC(=O)c2ccc([N+](=O)[O-])o2)CC1 | -63% | -44.7%
Cc1ccccc1-n1ncc2c(SCC(=O)N3c4ccccc4CC3C)ncnc21 (configuration not stated) | -68.4% | 18%
O=C(CSc1nnc(COc2cccc3cccnc23)o1)c1ccc(F)cc1 | -16.9% | -9.09%
Cc1ccn2cc(-c3cccc(NC(=O)c4cccs4)c3)nc2c1 | 7.08% | -39%
COc1ccc(-c2nc3ccc(Cl)cn3c2Cc2cccc(F)c2)cc1OC | -76.9% | -12.9%
N#Cc1ccc(OCC(=O)N2CCN(S(=O)(=O)c3ccc(Cl)s3)CC2)cc1 | -37.4% | -12.4%
COc1cccc(C(=O)NC2CC3CCCC(C2)N3S(=O)(=O)c2ccccc2)c1 (configuration not stated) | -54.5% | 2.3%
